Assay results from patent publication US20070111934A1.
These are yes or no findings as the source states them, for the method shown. In cells and extracts the contact can be indirect. Some binding calls cover weakened binding; strength is not graded here.

By UniProt entry, the sequences of proteins in these tests, tags left out. Where a name states a change or a piece, a line headed by the entry shows the natural chain unless it says otherwise.
UniProt P29466: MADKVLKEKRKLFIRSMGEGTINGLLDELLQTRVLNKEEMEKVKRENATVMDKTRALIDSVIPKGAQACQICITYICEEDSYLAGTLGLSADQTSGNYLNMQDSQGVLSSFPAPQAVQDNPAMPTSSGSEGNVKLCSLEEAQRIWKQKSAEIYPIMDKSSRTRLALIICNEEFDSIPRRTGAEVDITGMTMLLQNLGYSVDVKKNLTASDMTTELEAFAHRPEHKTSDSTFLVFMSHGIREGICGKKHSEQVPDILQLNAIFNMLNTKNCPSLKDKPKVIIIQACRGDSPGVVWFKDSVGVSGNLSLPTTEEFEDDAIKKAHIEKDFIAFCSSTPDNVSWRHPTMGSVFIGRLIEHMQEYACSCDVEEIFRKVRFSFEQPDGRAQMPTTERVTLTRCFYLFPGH
UniProt Q9HC29: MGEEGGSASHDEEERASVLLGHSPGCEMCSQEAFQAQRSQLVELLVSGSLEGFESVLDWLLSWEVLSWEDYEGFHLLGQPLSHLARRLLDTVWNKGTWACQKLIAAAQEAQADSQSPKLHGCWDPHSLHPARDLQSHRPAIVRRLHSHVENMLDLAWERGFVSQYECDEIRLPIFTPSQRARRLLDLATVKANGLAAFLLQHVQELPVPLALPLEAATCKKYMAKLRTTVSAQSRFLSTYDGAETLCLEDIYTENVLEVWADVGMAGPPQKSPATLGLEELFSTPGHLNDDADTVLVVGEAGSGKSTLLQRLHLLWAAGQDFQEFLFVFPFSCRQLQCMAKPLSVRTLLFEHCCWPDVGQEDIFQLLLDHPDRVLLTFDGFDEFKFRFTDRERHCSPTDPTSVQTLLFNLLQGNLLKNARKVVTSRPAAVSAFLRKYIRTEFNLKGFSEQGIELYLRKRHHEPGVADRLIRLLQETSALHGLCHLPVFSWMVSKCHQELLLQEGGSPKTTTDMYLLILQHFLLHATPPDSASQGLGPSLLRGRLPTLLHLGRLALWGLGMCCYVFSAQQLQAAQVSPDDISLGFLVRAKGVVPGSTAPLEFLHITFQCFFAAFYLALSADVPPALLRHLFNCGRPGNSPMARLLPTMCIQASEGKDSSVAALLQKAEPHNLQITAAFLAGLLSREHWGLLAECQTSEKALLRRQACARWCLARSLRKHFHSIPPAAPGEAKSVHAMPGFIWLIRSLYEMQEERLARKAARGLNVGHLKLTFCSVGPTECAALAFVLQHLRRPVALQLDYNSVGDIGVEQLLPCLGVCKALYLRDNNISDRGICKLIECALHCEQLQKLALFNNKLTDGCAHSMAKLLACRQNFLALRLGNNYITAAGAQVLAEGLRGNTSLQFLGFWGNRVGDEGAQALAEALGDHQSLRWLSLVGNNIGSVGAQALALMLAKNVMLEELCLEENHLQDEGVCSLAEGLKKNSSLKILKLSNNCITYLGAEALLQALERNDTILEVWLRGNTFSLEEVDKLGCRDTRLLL

Legend:
[1] = target: N-terminal FLAG-tagged procaspase-1 (C285A) (FLAG-procaspase-1 (C285A)) (Homo sapiens (Human)) (UniProt P29466); experiment: co-immunoprecipitation from lysate of co-transfected cells, Western blotting (FIG. 1-B)
[2] = target: N-terminal FLAG-tagged procaspase-1 (C285A) (FLAG-procaspase-1 (C285A)) (Homo sapiens (Human)) (UniProt P29466); experiment: co-immunoprecipitation from lysate of co-transfected HEK293T cells (anti-FLAG M2 or anti-myc agarose), Western blotting
[3] = target: N-terminal FLAG-tagged procaspase-1 (C285A) (FLAG-procaspase-1 (C285A)) (Homo sapiens (Human)) (UniProt P29466); experiment: co-immunoprecipitation with anti-FLAG M2 agarose from HEK293T lysate, Western blotting with anti-myc antibody
[4] = target: N-terminal FLAG-tagged procaspase-1 (C285A) (FLAG-procaspase-1 (C285A)) (Homo sapiens (Human)) (UniProt P29466); experiment: co-immunoprecipitation with anti-FLAG antibody, Western blotting with anti-myc antibody (FIG. 2-A)

Substance | binding [1] | binding [2] | binding [3] | binding [4]
C-terminal myc-His-tagged NOD2 (NOD2-myc-His) (from UniProt Q9HC29 1-1040) | binds | binds | – | –
N-terminal myc-tagged procaspase-1 (C285A) (Myc-procaspase-1 (C285A)) (from UniProt P29466 1-404) (enzyme) | – | – | binds | binds
